PubChem BioAssay AID1159584, Peter MacCallum Cancer Centre – 2016
Screen: 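Knock-downs that harm CDH1-null cells more than parental MCF10A cells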 (primary screen). Cell system: human MCF10A breast epithelial cells, parental and CDH1-null. Knock-down reagent: siRNA against human genes. Read-out: 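ATP luminescence (CellTiter-Glo) viability per line relative to mean mock wells over all plates, and the ratio of CDH1-null to parental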. Reading the numbers: CDH1-null / parental viability ratio: higher = CDH1-null cells survive relatively better than parental; CDH1-null viability vs mock: higher = more viable CDH1-null cells; parental viability vs mock: higher = more viable parental cells.
This is one part, drawn at random, of about 18,000 deposited reagents. Reagent sequences are not shown. Not stated in the record: the amount of reagent, the time to read-out.

no.	gene symbol	CDH1-null / parental viability ratio	CDH1-null viability vs mock (fraction of mock)	parental viability vs mock (fraction of mock)
1	SYK (spleen associated tyrosine kinase)	1.12	0.72	0.64
2	ZNF658 (zinc finger protein 658)	1.01	0.91	0.9
3	IQSEC2 (IQ motif and Sec7 domain ArfGEF 2)	0.59	0.48	0.81
4	PLCD3 (phospholipase C delta 3)	0.94	0.5	0.53
5	INSL3 (insulin like 3)	0.99	0.89	0.9
6	CYYR1 (cysteine and tyrosine rich 1)	0.9	0.85	0.94
7	PSG11 (pregnancy specific beta-1-glycoprotein 11)	0.87	0.8	0.92
8	APOB (apolipoprotein B)	0.76	0.62	0.82
9	CEP131 (centrosomal protein 131)	0.92	0.85	0.92
10	ZNF749 (zinc finger protein 749)	0.91	0.96	1.05
11	ANKS3 (ankyrin repeat and sterile alpha motif domain containing 3)	0.88	0.51	0.58
12	WDR31 (WD repeat domain 31)	1.02	0.86	0.84
13	SS18L1 (SS18L1 subunit of BAF chromatin remodeling complex)	0.97	0.66	0.68
14	SMTN (smoothelin)	0.95	0.61	0.64
15	LALBA (lactalbumin alpha)	1.43	1.06	0.74
16	ST13 (ST13 Hsp70 interacting protein)	0.94	1.03	1.1
17	LTBP4 (latent transforming growth factor beta binding protein 4)	0.8	0.66	0.82
18	PFKL (phosphofructokinase, liver type)	0.96	0.9	0.94
19	CD300LG (CD300 molecule like family member g)	1.17	0.94	0.8
20	VAV3 (vav guanine nucleotide exchange factor 3)	0.94	0.98	1.04
21	UNC5C (unc-5 netrin receptor C)	1.04	0.76	0.73
22	WASHC3 (WASH complex subunit 3)	1.21	0.91	0.75
23	COL27A1 (collagen type XXVII alpha 1 chain)	0.85	0.66	0.78
24	C3orf62 (chromosome 3 open reading frame 62)	1	0.8	0.8
25	OR51T1 (olfactory receptor family 51 subfamily T member 1)	0.91	0.32	0.35
26	UBE2U (ubiquitin conjugating enzyme E2 U)	1.14	1	0.88
27	CBLL2 (Cbl proto-oncogene like 2)	1.01	0.99	0.98
28	LARS2 (leucyl-tRNA synthetase 2, mitochondrial)	0.99	0.76	0.77

3 of these entries in another layout:
{"gene symbol": "SYK (spleen associated tyrosine kinase)", "CDH1-null / parental viability ratio": 1.12, "CDH1-null viability vs mock (fraction of mock)": 0.72, "parental viability vs mock (fraction of mock)": 0.64}
{"gene symbol": "ZNF658 (zinc finger protein 658)", "CDH1-null / parental viability ratio": 1.01, "CDH1-null viability vs mock (fraction of mock)": 0.91, "parental viability vs mock (fraction of mock)": 0.9}
{"gene symbol": "IQSEC2 (IQ motif and Sec7 domain ArfGEF 2)", "CDH1-null / parental viability ratio": 0.59, "CDH1-null viability vs mock (fraction of mock)": 0.48, "parental viability vs mock (fraction of mock)": 0.81}
